Earlier results as cited in EP3456336B1, “A CELERY SEED AND SOPHORA FLOWER BUD EXTRACT AND MEDICAL USE THEREOF” (Beijing Tianheng Junwei Pharmaceutical Tech Co., Ltd, priority 2016, dated 2017).
At least one structure is not confirmed: it was looked up by name or label, or the drawing left a doubt.

System: vesicular stomatitis virus
Conditions: concentration 200 µg/ml; cited from earlier work

In the case of `C[C@@H]1O[C@@H](OC[C@H]2O[C@@H](Oc3c(-c4ccc(O)c(O)c4)oc4cc(O)cc(O)c4c3=O)[C@H](O)[C@@H](O)[C@@H]2O)[C@H](O)[C@H](O)[C@H]1O` [rutin], the “inhibitory effect on vesicular stomatitis virus” value is listed as “maximum inhibitory effect”.
